Measured values published in PMC11720235.
Results are given in words; binding and its absence hold for the method and conditions named. For part of these data: Binding seen in cells or lysates may run through a third protein. Some binding calls cover weakened binding; strength is not graded here. Where a sequence is shown, tags or fusion partners need not be part of it. One block for each binder: values may come before it.

How the values were obtained:
[1] = target: T1, NtCDKG;2 (N. tabacum Cyclin-Dependent Kinase G;2), fused to the GAL4 DNA binding domain (Nicotiana tabacum); assay: two-hybrid; screen of a N. tabacum stigma/style cDNA library with NtCDKG;2 in pDEST32 as bait; positive clones Sanger-sequenced
T1 sequence: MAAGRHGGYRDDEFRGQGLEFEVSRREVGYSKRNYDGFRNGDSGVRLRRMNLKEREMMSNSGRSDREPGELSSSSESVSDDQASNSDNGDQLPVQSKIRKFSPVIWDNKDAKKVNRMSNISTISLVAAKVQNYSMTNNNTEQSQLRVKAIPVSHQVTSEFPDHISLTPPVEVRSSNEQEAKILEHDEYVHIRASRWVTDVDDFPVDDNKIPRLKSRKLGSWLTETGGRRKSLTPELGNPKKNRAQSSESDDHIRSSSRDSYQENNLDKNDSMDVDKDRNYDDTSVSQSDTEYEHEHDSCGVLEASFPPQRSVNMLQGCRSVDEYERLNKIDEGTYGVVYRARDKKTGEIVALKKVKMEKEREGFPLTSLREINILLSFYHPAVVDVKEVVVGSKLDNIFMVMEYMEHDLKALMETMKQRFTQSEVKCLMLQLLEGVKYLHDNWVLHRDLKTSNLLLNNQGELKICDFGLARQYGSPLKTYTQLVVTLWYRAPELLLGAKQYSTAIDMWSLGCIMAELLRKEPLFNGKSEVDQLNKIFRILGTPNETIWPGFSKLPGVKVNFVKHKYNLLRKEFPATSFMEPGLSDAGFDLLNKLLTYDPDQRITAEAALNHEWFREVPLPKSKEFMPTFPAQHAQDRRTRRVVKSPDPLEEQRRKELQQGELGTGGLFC

[2] = target: T1, NtCDKG;2 (N. tabacum Cyclin-Dependent Kinase G;2), fused to the GAL4 DNA binding domain (Nicotiana tabacum); assay: two-hybrid; pairwise (binary) test in yeast PJ69-4α; DBD-NtCDKG;2 (pDEST32) with AD fusions (pDEST22); growth on SD without leucine, tryptophan and histidine, 30 °C, 2-3 days; 1 mM 3-amino-1,2,4-triazole for NtRanBP1
[3] = target: T2, NtCDKG;2–cGFP (Nicotiana tabacum); assay: split reporter; BiFC; NtCDKG;2-cGFP and NtRanBP1-nGFP co-expressed transiently in epidermal cells of N. benthamiana leaves, 48 to 72 h; confocal microscopy; signal in the nucleus
T2 sequence: T1 sequence

binding [1]: binds
binding [2]: binds
B1: NtRanBP1-1a (Ran-Binding Protein 1 of N. tabacum), fused to the GAL4 activation domain (protein, UniProt A0A1S4BK62 1-220)
chain: MASSAEPKLEKKEVEEENPSATADDEDTGAQVAPIVKLQEVTVSTGEENEDVLLDLKSKLYRFDKEGNAWKERGAGTVKLLKHKETAKVRLVMRQSKTLKICANHLVLPTMSIQEHAGNEKSCVWHAADFADGELKEETFCIRFASIENCKSFKEKVEEIAESQQTKSEESEGAAAAATELIEKLSVESKDKENKAEDKEAPAPTEEKEDKNEENAVEKN

binding [3]: binds
B2: NtRanBP1–nGFP (protein, UniProt A0A1S4BK62 1-220)
chain: B1 chain
